Experimental data from article PMC10665946.

Target: T1, hydrogen voltage-gated channel 1 (HVCN1) on CD18/HVCN1 CHO cells (UniProt Q96D96)
T1 sequence: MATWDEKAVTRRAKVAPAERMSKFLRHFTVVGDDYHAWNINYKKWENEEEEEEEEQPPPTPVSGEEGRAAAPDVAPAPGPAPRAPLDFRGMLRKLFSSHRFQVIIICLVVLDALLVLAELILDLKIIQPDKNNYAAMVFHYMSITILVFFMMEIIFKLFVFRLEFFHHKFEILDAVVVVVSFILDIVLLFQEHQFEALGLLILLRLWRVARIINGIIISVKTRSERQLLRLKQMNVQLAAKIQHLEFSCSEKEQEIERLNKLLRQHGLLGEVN
Assay: flow cytometry on cells; purified CC8 LukAB titrated in PBS, added to 100,000 CHO cells, on ice 10 min; bound LukAB detected with anti-His PE; ΔMFI with PBS signal subtracted; only the binder purified

**Q.** For “WT CC8 LukAB (leukocidin A/leukocidin B) heterodimer (S. aureus) (complex)”, which binding is on record?
**A.** binds

These are yes or no findings as the source states them, for the method shown. Binding calls can cover weak binding; strength is not graded here. Tags and fused reporters may be left off the sequences shown.
